{"source": "paper PMC5241585", "about": "(International Journal for Parasitology: Drugs and Drug …, 2016)", "key": {"[1]": {"test_system": "free L. donovani promastigotes", "test": "Resazurin reduction assay, L. donovani promastigotes", "type": "cell-based", "settings": "Leishmania donovani, read-out: inhibition of free L. donovani promastigotes"}, "[2]": {"test_system": "Human Embryonic Kidney (HEK 293) cells", "settings": "read-out: HEK 293 IC50; previously published; ref Engel et al., 2015; cited from earlier work"}, "[3]": {"test_system": "human Neonatal Foreskin Fibroblast (NFF) cells", "settings": "read-out: NFF IC50; previously published; ref Engel et al., 2015; cited from earlier work"}, "P. knowlesi A1H.1": {"test_system": "P. knowlesi A1H.1", "test": "P. knowlesi A1H.1 3H-hypoxanthine incorporation growth inhibition assay", "type": "cell-based", "settings": "Plasmodium knowlesi, 48 h, read-out: P. knowlesi A1H.1 IC50"}}, "note": "pIC50: −log10 of the molar value."}
{"compound": "O=C(CCCCCCC(=O)Nc1ccccc1)NO", "note": "[Vorinostat]", "values": [{"measurement": "inhibition at 20 µM", "setting": "[1]", "result": "20 to 35", "unit": "%"}, {"measurement": "pIC50", "setting": "[2]", "result": 5.29}, {"measurement": "pIC50", "setting": "[3]", "result": 5.26}, {"measurement": "pIC50", "setting": "P. knowlesi A1H.1", "result": 6.43}]}
